Data set [1] deals with Pumilio protein. Kind of data set: ELISA assay of Pumilio protein (β-Galactosidase system), detection and quantification limit. (In general: ELISA stands for enzyme-linked immunosorbent assay.)
For data set [2], the system named is Pumilio protein. Kind of data set: ELISA assay of Pumilio protein (Alkaline phosphatase system), detection and quantification limit.
In data set [3] the test system is alkaline phosphatase. The conditions noted are these: ALP assay.
[4] abbreviates: conventional substrate, no cycling method printed.

In patent US20180106727A1, “ULTRA-HIGH-SENSITIVE ASSAY OF PROTEIN AND NUCLEIC ACID AND KIT, AND NOVEL ENZYME SUBSTRATE” (priority 2011, published 2018) one finds Detection limit and Quantification limit data, which are given here for seven compounds.

Molecules are shown by their SMILES. Where two headings read alike, the source gives them in different places.

In data set [1] (setting [4]), `Cc1cc(=O)oc2cc(O[C@@H]3O[C@H](CO)[C@H](O)[C@H](O)[C@H]3O)ccc12` [4-MUG, reference compound] registered a Detection limit of 2.07e-16 mol and a Quantification limit of 6.91e-16 mol.
As for `C[C@]12CC[C@@H](OP(=O)(O)O)C[C@@H]1CC[C@@H]1[C@@H]2CC[C@]2(C)C(=O)CC[C@@H]12` [5α-A3P, 5α-Androsterone 3-Phosphate], the Detection limit is given as 3.57 × 10^−14 in data set [2] (One-step) and 2.63 × 10^−16 in data set [2] (Two-steps). The results for the Quantification limit in data set [2] (One-step) and in data set [2] (Two-steps) were 7.3 × 10^−14 and 8.76 × 10^−16, respectively.
The corresponding values for `C[C@]12CC[C@@H](OP(=O)(O)O)C[C@H]1CC[C@@H]1[C@@H]2CC[C@]2(C)C(=O)CC[C@@H]12` [5β-A3P, 5β-Androsterone 3-Phosphate] are 3.96 × 10^−15, 1.2 × 10^−16, 1.32 × 10^−14 and 4 × 10^−16.
As to `C[C@]12CC[C@@H](O[C@@H]3O[C@H](CO)[C@H](O)[C@H](O)[C@H]3O)C[C@H]1CC[C@@H]1[C@@H]2CC[C@]2(C)C(=O)CC[C@@H]12` [5β-AG, 5β-Androsterone-3β-D-Galactoside], in data set [1] (One-step), the Detection limit stood at 2.21e-17 mol and the Quantification limit worked out at 7.35e-17 mol. In data set [1] (Two-steps), this compound returned a Detection limit of 1.65e-17 mol and a Quantification limit of 5.51e-17 mol.
On to `CO[C@H]1CC[C@H]2[C@@H]3CC[C@@H]4C[C@H](OP(=O)(O)O)CC[C@]4(C)[C@H]3CC[C@]12C` [17-OMe 5β-A3P], for which the Detection limit was 4.0 × 10^−17 in data set [2] (One-step), 2.45 × 10^−18 in data set [2] (Two-steps), 3.25e-18 mol in data set [3] (One-step) and 8.19e-20 mol in data set [3] (Two-steps). The Quantification limit in data set [2] (One-step) was 1.3 × 10^−16; in data set [2] (Two-steps), 8.17 × 10^−18; in data set [3] (One-step), 1.08e-17 mol; in data set [3] (Two-steps), 2.73e-19 mol.
Take `CO[C@H]1CC[C@H]2[C@@H]3CC[C@@H]4C[C@H](O[C@@H]5O[C@H](CO)[C@H](O)[C@H](O)[C@H]5O)CC[C@]4(C)[C@H]3CC[C@]12C` [17-OMe 5β-AG]: the results for the Detection limit in data set [1] (One-step) and in data set [1] (Two-steps) were 3.24e-17 mol and 3.17e-17 mol, respectively. In addition, the Quantification limit stood at 1.08e-16 mol in data set [1] (One-step) and 1.06e-16 mol in data set [1] (Two-steps).
`O=[N+]([O-])c1ccc(OP(=O)(O)O)cc1` [p-NPP, p-Nitrophenyl Phosphate]: in data set [2] (setting [4]), the Detection limit is on record as 3.97 × 10^−16 and the Quantification limit is recorded as 1.32 × 10^−15.
